Test results as given in paper PMC10373549.
Results are given in words; binding and its absence hold for the method and conditions named. Binding seen in cells or lysates may run through a third protein. Some results given as binding are weak or reduced against the parent protein; the word gives no strength. For some assays here: Where a sequence is shown, tags or fusion partners need not be part of it.

Columns and labels:
[1] = target: T1, full-length SLF2 (SLF2-HA) (human) (UniProt Q8IX21); test: co-IP; nucleus lysates of SLF2 knockout HepG2-NTCP cells transduced with lentivirus expressing SLF2-HA or truncation variants; anti-HA IP; Western blot for SMC6 and SLF2-HA
T1 sequence: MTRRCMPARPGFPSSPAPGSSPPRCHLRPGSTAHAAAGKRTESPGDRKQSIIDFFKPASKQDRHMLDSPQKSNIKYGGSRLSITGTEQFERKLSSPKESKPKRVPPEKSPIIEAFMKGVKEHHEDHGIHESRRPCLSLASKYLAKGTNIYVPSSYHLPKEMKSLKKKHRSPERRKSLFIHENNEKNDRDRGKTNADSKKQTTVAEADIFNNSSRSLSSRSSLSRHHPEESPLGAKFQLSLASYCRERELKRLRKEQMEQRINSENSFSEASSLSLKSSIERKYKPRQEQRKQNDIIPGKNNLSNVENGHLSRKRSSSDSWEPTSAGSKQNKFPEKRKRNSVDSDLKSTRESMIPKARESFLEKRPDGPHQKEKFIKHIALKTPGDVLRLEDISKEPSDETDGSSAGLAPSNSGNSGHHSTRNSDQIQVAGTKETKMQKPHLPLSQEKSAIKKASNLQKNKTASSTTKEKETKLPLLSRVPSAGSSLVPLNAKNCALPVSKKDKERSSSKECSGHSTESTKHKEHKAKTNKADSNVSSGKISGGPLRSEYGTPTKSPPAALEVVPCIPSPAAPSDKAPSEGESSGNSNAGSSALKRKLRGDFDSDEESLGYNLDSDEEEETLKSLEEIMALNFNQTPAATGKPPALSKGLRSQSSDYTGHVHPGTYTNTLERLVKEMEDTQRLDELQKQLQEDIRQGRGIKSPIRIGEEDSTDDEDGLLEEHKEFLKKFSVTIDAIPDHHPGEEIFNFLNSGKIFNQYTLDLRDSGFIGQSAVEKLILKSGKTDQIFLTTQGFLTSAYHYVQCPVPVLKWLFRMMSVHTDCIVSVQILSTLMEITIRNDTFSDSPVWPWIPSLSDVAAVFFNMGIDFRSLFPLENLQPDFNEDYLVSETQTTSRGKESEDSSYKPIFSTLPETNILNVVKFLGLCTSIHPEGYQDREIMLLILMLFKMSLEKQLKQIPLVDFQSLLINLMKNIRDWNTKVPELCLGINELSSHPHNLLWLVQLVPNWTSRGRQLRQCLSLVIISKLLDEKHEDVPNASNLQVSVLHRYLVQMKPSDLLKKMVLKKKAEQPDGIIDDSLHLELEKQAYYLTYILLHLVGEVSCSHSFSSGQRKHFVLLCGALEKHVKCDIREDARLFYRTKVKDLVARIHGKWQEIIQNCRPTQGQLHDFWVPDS

[2] = target: T2, SMC5-SMC6 localization factor 2 (SLF2), endogenous (human (endogenous in HepG2-NTCP)) (UniProt Q8IX21); test: co-IP; nucleus lysate of HepG2-NTCP cells cultured in PMM for 48 h (1% CA630, TBS, benzonase); SLF2 antibody on Dynabeads Protein A, 3 h at 4°C; washes with TBS and 250 mM NaCl; Western blot for SMC6
T2 sequence: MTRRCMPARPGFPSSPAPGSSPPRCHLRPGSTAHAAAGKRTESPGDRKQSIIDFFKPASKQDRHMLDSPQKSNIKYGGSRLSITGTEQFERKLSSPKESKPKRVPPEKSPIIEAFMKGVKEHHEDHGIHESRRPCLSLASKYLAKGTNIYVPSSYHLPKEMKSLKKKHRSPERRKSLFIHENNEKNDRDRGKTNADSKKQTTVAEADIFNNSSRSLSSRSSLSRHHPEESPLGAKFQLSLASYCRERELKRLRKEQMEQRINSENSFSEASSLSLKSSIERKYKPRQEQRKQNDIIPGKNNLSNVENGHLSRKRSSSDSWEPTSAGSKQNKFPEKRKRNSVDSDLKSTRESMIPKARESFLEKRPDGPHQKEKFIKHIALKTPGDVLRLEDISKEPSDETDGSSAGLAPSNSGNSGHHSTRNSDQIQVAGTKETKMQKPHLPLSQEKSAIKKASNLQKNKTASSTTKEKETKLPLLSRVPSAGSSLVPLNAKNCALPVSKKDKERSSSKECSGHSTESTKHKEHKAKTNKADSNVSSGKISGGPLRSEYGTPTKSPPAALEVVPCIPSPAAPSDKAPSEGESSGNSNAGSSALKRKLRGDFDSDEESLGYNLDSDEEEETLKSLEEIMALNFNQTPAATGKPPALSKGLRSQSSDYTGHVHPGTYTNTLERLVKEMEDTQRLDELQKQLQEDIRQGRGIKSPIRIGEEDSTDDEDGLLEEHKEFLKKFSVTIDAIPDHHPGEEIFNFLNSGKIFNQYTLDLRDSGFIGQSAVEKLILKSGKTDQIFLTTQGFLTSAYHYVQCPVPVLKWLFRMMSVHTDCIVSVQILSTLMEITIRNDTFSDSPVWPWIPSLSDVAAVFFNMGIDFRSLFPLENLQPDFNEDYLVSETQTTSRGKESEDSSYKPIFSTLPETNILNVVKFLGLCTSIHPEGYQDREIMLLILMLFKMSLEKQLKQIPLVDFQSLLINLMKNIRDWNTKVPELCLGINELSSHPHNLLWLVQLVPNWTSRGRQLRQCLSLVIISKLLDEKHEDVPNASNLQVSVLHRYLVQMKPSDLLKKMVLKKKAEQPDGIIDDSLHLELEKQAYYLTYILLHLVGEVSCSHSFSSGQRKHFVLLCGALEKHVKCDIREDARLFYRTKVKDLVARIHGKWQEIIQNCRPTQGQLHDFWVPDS

binding [1]: binds
binding [2]: binds
B1: SMC6, endogenous (protein, UniProt Q96SB8 1-1091)
chain: MAKRKEENFSSPKNAKRPRQEELEDFDKDGDEDECKGTTLTAAEVGIIESIHLKNFMCHSMLGPFKFGSNVNFVVGNNGSGKSAVLTALIVGLGGRAVATNRGSSLKGFVKDGQNSADISITLRNRGDDAFKASVYGNSILIQQHISIDGSRSYKLKSATGSVVSTRKEELIAILDHFNIQVDNPVSVLTQEMSKQFLQSKNEGDKYKFFMKATQLEQMKEDYSYIMETKERTKEQIHQGEERLTELKRQCVEKEERFQSIAGLSTMKTNLESLKHEMAWAVVNEIEKQLNAIRDNIKIGEDRAARLDRKMEEQQVRLNEAEQKYKDIQDKLEKISEETNARAPECMALKADVVAKKRAYNEAEVLYNRSLNEYKALKKDDEQLCKRIEELKKSTDQSLEPERLERQKKISWLKERVKAFQNQENSVNQEIEQFQQAIEKDKEEHGKIKREELDVKHALSYNQRQLKELKDSKTDRLKRFGPNVPALLEAIDDAYRQGHFTYKPVGPLGACIHLRDPELALAIESCLKGLLQAYCCHNHADERVLQALMKRFYLPGTSRPPIIVSEFRNEIYDVRHRAAYHPDFPTVLTALEIDNAVVANSLIDMRGIETVLLIKNNSVARAVMQSQKPPKNCREAFTADGDQVFAGRYYSSENTRPKFLSRDVDSEISDLENEVENKTAQILNLQQHLSALEKDIKHNEELLKRCQLHYKELKMKIRKNISEIRELENIEEHQSVDIATLEDEAQENKSKMKMVEEHMEQQKENMEHLKSLKIEAENKYDAIKFKINQLSELADPLKDELNLADSEVDNQKRGKRHYEEKQKEHLDTLNKKKRELDMKEKELEEKMSQARQICPERIEVEKSASILDKEINRLRQKIQAEHASHGDREEIMRQYQEARETYLDLDSKVRTLKKFIKLLGEIMEHRFKTYQQFRRCLTLRCKLYFDNLLSQRAYCGKMNFDHKNETLSISVQPGEGNKAAFNDMRALSGGERSFSTVCFILSLWSIAESPFRCLDEFDVYMDMVNRRIAMDLILKMADSQRFRQFILLTPQSMSSLPSSKLIRILRMSDPERGQTTLPFRPVTQEEDDDQR
